Primary screen of a compound library

The values are deposited in ChEMBL (CHEMBL3988442, “University of Dundee, Small-Polar-MMV Screening Library” (2021)).

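Viability assay of Plasmodium falciparum sporozoites; the read-out is not stated. The concentration is filed as 10 mM, unlikely as a test dose, so the dose is not known. Direction is inferred from retests: higher values go with lower viability. Strong results were mostly tested again. About 34,000 compounds were tested under these conditions; 0.84% (about 280) showed 50% or more at least once.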

Values are the deposited “Percent Effect”, in %.
The record does not define 0% and 100%; most values in the screen are far below 50% and negative numbers occur (in some assays of this library far below -100).
Compounds were drawn at random from those tested, without regard to their results.

{"compound": "CC(C)n1c(C2CCCN(CCS(C)(=O)=O)C2)nc2ccccc21", "stereo": "stereo unspecified", "effect": -4.961}
{"compound": "CC(C)Oc1cccc(C(O)CNC(=O)CCc2ccncc2)c1", "stereo": "stereo unspecified", "effect": -9.448}
{"compound": "Cc1ccc(CNC(=O)N(Cc2ccccc2F)C2CC2)cn1", "effect": 1.931}
{"compound": "CS(=O)(=O)NCC1CCCCN1C(=O)c1cccc(C(F)(F)F)c1", "stereo": "stereo unspecified", "effect": -138.6}
{"compound": "CN(C)C(=O)N1CCc2onc(C(=O)Nc3cccnc3)c2C1.O=C(O)C(F)(F)F", "effect": -6.33}
{"compound": "Cc1ccc(CNC(=O)N2CCN(S(C)(=O)=O)CC2)n1C", "effect": -10.06}
{"compound": "Cc1cccc(NC(=O)c2cncc(C3CCNCC3)n2)n1", "effect": 3.261}
{"compound": "Cc1nc[nH]c1CN(Cc1ccccc1)C1CC(C)(C)NC(C)(C)C1.O=C(O)CC(O)(CC(=O)O)C(=O)O", "effect": 14.37}
{"compound": "CCCc1nc(CN2CCN(C(C)c3nc(C4CC4)no3)CC2)no1", "stereo": "stereo unspecified", "effect": -8.575}